Assay [1] has as its target GAF (co-IP domain-mapping experiments) (Drosophila) (UniProt Q08605). Kind of assay: co-IP; co-IP of GAF, HIRA and their deletion mutants (SI Appendix Figs. S6B-F, S8C-E); cells and tags not shown.
The target of assay [2] is T1, HIRA (co-IP domain-mapping experiments) (Drosophila) (UniProt O17468).
T1 sequence: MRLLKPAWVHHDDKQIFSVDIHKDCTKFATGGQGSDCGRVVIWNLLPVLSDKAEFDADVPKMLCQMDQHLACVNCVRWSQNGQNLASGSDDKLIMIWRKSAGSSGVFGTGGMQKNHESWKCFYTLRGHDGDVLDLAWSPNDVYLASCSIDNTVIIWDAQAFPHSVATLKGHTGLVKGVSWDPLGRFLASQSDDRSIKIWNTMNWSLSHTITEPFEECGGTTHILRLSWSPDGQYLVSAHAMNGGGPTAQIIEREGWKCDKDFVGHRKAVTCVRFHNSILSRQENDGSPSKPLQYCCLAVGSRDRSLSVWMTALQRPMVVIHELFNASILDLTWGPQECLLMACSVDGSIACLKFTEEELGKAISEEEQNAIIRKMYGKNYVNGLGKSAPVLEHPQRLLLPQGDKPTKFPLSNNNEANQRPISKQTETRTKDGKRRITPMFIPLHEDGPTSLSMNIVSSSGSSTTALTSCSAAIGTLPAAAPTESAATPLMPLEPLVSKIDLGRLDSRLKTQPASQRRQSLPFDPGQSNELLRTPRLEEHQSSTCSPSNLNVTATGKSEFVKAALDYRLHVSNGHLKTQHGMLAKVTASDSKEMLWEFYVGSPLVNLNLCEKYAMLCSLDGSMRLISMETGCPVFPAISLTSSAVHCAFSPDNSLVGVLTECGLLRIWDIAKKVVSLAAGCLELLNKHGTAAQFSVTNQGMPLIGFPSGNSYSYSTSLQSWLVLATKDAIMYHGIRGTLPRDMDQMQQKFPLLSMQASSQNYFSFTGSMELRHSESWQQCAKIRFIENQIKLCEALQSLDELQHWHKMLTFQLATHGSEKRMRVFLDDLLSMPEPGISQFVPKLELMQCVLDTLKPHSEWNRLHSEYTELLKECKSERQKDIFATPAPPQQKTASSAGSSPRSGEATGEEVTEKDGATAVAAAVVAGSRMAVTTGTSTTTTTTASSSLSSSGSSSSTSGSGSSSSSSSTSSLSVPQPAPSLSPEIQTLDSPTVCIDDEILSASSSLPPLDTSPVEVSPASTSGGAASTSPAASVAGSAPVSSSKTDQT
The assay is described as above.

The target of assay [3] is GAF (in vitro, semidenaturing detergent agarose gel electrophoresis) (Drosophila) (UniProt Q08605). As to the kind of experiment: semidenaturing detergent agarose gel electrophoresis; GAF in solution, alone or in the presence of nucleosomes; detects high molecular weight oligomers (SI Appendix Fig. S7H, I).

Results are given in words; binding and its absence hold for the method and conditions named. For part of these data: Binding seen in cells or lysates may run through a third protein. Some results given as binding are weak or reduced against the parent protein; the word gives no strength.

B1: GAF (co-IP domain-mapping experiments) (protein, UniProt Q08605 1-582)
chain: MSLPMNSLYSLTWGDYGTSLVSAIQLLRCHGDLVDCTLAAGGRSFPAHKIVLCAASPFLLDLLKNTPCKHPVVMLAGVNANDLEALLEFVYRGEVSVDHAQLPSLLQAAQCLNIQGLAPQTVTKDDYTTHSIQLQHMIPQHHDQDQLIATIATAPQQTVHAQVVEDIHHQGQILQATTQTNAAGQQQTIVTTDAAKHDQAVIQAFLPARKRKPRVKKMSPTAPKISKVEGMDTIMGTPTSSHGSGSVQQVLGENGAEGQLLSSTPIIKSEGQKVETIVTMDPNNMIPVTSANAATGEITPAQGATGSSGGNTSGVLSTPKAKRAKHPPGTEKPRSRSQSEQPATCPICYAVIRQSRNLRRHLELRHFAKPGVKKEKKTTSGKKSSSGSSGSGSGALSSSGSVPQVQTVQSLHTLQGVQVKKDPDAQQQQQQQQQQQQQQQQQAMTVSGATGGQVQQQVQQVQQQVQQQQQQQQQQQQQLQHHQIIDSSGNITTATTSAQAAAAAQQQAAGQQQQLVAQSDGSESGAPLSIAQVQTLQGHQIIGNLNQVNITDFQQQQPQQQQQQQQQQQQQQQQQQQTQQTL
On to B1, for which the binding result in assay [1] and in assay [2] was “binds” throughout.

B2: GAF (in vitro, semidenaturing detergent agarose gel electrophoresis) (protein, UniProt Q08605 1-582)
chain: B1 chain
B2: in assay [3], the binding entry was “binds”.

Source of the values: publication PMC11588057.
